According to patent publication US9232790B2, “Antimicrobial cleansing compositions” (KIMBERLY-CLARK WORLDWIDE, INC., priority 2011, dated 2016):
Some results were stated once for a whole list of compounds, not compound by compound. For part of these data: For at least one compound, name, drawing or mass did not settle the structure.

Columns and labels:
[1] = system: S. aureus (ATCC 6538); experiment: Impact of CAPB on cationic biocides, 60 second contact test against S. aureus; type: cell-based; conditions: 0.3% active, 60 seconds contact, 0.3 g/L bovine serum albumin, with CAPB 3.5% w/w active
Description: In this Example, the impact of cocamidopropyl betaine (CAPB) on the antimicrobial activity of cationic biocides against S. aureus (ATCC 6538) was analyzed.
Specifically, S. aureus was contacted for 60 seconds in a 0.3 g/L solution of bovine serum albumin mixed with a solution containing a cationic biocide, with or without CAPB (3.5% w/w active).

[2] = system: E. faecalis (ATCC 29212); experiment: Impact of CAPB on cationic biocides, 60 second contact test against E. faecalis; type: cell-based; conditions: 0.3% active, 60 seconds contact, 0.3 g/L bovine serum albumin, with CAPB 3.5% w/w active, listed as benzalkonium chloride
Description: In this Example, the impact of cocamidopropyl betaine (CAPB) on the antimicrobial activity of cationic biocides against E. faecalis (ATCC 29212) was analyzed.
Specifically, E. faecalis was contacted for 60 seconds in a 0.3 g/L solution of bovine serum albumin mixed with a solution containing a cationic biocide, with or without CAPB (3.5% w/w active).

How did the “LOG10 CFU/ml Reduction, w/ CAPB” value ([1]; listed as chlorhexidine gluconate) turn out when `N=C(NCCCCCCNC(=N)NC(=N)Nc1ccc(Cl)cc1)NC(=N)Nc1ccc(Cl)cc1.O=C(O)[C@H](O)[C@@H](O)[C@H](O)[C@H](O)CO.O=C(O)[C@H](O)[C@@H](O)[C@H](O)[C@H](O)CO` [Chlorhexidine gluconate] was run?
The value was “less than 2.4 LOG10 CFU/ml”.

Which “LOG10 CFU/ml Reduction, w/ CAPB” value ([1]; listed as benzalkonium chloride) does the source give for Benzalkonium chloride here?
Its value is “less than 2.4 LOG10 CFU/ml”.

What about the “LOG10 CFU/ml Reduction, w/ CAPB” value [2] of the same molecule?
The value was “less than 3.3 LOG10 CFU/ml”.
